In patent US20070148684A1, “IMMUNOASSAY FOR HIV PROTEASE INHIBITORS” (priority 2000, published 2007):

System: saquinavir antiserum
Test: Assay performance with serum milieu: saquinavir ELISA in 50% human serum
Assay type: binding, sheep
Conditions: final assay in 50% human serum
Description: An ELISA plate was coated with the above concentrations of saquinavir-BSA using the same conditions as set forth above. While the plates were being PostCoated, serial three-fold dilutions of saquinavir, ritonavir, indinavir, and nelfinavir were prepared in a 1 ml capacity 96-well plate. All drugs were prepared at 1 mg/ml in absolute methanol and stored at 4° C. until used. Briefly, 1 μl of each drug was transferred to wells of the first row of the plate, which contained 500 μl of PBS-TWEEN in each well of the first row and 200 μl of the same buffer in all other wells of those columns. After mixing, 100 μl from the first row of each of the four columns was transferred to the second row and mixed. This was repeated across each row until the seventh row was completed. The eighth row contained only buffer, this was the zero concentration of each drug. Upon completion of the PostCoat incubation, the coated plate was washed and 50 μl of solution was transferred from row H of the dilution plate to row H of the coated plate; this was repeated from row G to row A using a micropipettor equipped with 4 tips. Upon completion of this, 50 μl of saquinavir antiserum, diluted 1:12,800 in PBS-TWEEN, was added to each well of the coated plate. The plate was incubated as above. […] The drug evaluated was saquinavir, and the drug diluent was 100% normal human serum. […]

CC(C)(C)NC(=O)[C@@H]1C[C@@H]2CCCC[C@@H]2CN1C[C@@H](O)[C@H](Cc1ccccc1)NC(=O)[C@H](CC(N)=O)NC(=O)c1ccc2ccccc2n1 [saquinavir]
range of the assay (FIG. 2): from less than a nanogram to 1 microgram per milliliter
lowest detectable level (estimated from dose response curve FIG. 2): 0.5 ng/mL
